Data taken from the supplement of paper PMC10849652.
The list shows a part of the results.

Chains of the proteins cited; added tags and fusions are not shown. Lines headed by an entry give the natural chain unless they say otherwise; changes in a name come on top.
UniProt A5A3E0, whole entry, looked up: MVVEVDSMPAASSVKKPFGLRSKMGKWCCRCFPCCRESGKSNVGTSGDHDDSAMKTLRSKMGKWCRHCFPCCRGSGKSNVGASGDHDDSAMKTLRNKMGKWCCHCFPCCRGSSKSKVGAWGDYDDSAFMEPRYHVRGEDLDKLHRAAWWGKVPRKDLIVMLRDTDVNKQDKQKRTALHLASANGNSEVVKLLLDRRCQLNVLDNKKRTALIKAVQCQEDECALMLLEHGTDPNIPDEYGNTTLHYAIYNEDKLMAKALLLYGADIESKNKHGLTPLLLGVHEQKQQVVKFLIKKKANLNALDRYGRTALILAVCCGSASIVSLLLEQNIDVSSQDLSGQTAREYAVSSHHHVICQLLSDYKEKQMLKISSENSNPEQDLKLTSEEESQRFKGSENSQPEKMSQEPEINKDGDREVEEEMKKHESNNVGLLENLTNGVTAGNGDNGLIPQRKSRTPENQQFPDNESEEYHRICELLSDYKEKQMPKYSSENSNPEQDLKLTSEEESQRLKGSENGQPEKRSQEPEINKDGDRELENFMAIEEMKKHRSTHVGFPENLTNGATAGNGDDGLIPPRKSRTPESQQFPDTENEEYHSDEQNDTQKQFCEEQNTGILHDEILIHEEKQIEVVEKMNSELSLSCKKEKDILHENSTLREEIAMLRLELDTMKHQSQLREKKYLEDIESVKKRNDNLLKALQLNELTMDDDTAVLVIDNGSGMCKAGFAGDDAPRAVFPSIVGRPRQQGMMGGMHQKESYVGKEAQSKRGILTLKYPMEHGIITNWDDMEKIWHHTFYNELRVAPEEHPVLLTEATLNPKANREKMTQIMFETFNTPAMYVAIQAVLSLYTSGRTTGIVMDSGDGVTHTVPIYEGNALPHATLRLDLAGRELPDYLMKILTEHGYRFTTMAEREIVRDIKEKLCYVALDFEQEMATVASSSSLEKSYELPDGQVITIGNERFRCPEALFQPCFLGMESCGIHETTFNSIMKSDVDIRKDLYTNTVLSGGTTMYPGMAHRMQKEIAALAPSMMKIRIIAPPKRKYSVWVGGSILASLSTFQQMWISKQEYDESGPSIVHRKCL
UniProt Q99575: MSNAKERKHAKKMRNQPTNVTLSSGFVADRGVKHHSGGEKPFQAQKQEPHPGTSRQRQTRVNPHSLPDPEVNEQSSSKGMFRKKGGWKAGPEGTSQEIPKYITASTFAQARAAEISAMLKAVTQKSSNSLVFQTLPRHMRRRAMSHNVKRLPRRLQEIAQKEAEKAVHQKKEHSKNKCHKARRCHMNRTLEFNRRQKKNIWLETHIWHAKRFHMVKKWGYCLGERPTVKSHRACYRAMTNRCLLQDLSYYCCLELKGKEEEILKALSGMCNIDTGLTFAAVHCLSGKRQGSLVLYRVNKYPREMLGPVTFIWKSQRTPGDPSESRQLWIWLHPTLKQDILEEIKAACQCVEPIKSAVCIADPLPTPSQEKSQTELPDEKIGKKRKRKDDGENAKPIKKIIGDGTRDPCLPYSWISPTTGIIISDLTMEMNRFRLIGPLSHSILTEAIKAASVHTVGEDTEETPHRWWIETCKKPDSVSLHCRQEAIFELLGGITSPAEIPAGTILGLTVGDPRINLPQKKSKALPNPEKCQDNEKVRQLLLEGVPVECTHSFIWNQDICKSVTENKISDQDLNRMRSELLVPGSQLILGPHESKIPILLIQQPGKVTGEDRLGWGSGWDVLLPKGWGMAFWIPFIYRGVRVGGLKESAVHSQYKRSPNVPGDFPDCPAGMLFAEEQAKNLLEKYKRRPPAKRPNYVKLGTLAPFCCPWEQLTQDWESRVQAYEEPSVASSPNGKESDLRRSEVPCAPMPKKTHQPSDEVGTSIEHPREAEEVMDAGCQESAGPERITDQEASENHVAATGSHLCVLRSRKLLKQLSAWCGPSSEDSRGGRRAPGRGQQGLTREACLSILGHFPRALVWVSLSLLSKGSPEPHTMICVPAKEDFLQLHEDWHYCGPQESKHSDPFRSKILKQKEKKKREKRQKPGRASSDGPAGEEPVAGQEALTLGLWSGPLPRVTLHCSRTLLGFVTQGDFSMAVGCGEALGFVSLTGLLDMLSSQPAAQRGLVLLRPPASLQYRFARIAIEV
UniProt Q9NVS9: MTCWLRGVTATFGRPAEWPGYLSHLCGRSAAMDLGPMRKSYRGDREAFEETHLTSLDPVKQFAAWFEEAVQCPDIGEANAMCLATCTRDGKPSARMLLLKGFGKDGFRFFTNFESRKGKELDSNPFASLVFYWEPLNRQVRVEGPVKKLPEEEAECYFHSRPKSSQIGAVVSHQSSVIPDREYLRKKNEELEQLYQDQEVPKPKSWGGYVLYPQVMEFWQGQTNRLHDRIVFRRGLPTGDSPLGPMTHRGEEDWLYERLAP
UniProt Q9H307: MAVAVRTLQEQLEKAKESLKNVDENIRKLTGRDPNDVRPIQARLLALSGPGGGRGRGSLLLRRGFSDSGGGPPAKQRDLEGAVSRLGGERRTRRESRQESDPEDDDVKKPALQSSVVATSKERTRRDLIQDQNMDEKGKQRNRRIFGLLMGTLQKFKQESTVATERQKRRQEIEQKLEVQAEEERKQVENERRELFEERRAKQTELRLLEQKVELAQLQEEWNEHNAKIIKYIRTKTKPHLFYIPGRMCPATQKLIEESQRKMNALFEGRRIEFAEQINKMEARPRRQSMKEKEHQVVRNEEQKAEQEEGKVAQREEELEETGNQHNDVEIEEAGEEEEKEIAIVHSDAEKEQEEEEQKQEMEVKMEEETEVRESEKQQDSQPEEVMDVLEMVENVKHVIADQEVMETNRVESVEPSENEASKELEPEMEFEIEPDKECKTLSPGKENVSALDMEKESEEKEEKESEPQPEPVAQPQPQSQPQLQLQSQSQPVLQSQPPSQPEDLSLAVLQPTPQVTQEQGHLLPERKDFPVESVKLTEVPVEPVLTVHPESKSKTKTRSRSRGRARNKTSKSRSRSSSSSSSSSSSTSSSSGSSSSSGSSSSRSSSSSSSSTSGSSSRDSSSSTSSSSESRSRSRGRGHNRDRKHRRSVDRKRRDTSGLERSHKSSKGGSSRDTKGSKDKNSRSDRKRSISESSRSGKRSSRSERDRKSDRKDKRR
UniProt Q8N490: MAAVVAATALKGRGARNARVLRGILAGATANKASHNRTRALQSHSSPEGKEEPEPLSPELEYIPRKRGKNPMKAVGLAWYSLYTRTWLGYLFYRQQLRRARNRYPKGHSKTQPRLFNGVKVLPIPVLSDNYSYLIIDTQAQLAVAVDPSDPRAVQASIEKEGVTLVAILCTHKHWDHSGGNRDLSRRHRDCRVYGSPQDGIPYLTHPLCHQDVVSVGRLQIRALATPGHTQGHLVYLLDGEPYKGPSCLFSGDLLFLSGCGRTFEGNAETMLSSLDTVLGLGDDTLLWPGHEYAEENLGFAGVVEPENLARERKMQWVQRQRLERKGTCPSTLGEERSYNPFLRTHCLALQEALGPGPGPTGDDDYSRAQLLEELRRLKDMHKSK
UniProt P0CG38, whole entry, looked up: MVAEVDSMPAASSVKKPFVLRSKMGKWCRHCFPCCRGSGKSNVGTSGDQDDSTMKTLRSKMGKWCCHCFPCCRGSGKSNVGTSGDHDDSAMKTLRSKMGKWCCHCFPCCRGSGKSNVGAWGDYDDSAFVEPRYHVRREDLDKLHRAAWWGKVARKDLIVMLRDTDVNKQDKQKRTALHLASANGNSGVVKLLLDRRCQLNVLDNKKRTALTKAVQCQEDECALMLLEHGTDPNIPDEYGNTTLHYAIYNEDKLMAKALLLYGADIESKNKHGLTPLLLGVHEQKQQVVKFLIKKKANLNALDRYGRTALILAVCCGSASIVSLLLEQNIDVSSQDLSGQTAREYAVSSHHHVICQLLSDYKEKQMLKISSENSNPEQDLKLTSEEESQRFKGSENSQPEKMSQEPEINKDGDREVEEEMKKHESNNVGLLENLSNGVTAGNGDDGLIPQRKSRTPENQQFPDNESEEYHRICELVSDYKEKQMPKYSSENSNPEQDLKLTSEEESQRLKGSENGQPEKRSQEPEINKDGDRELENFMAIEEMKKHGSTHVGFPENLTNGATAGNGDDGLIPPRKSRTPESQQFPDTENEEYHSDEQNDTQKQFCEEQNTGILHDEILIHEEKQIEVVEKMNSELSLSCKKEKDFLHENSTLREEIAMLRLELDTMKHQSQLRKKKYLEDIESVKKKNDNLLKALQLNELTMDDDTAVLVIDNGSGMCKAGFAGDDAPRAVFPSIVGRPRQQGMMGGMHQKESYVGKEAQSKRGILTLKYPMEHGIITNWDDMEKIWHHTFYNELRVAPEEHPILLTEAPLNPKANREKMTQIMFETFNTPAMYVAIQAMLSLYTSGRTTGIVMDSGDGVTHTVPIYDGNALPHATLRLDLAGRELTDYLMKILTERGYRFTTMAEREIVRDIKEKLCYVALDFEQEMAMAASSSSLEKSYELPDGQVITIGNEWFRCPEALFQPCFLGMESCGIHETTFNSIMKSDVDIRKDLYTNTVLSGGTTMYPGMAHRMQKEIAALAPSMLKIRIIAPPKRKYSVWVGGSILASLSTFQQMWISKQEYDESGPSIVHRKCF
UniProt Q06203, whole entry, looked up: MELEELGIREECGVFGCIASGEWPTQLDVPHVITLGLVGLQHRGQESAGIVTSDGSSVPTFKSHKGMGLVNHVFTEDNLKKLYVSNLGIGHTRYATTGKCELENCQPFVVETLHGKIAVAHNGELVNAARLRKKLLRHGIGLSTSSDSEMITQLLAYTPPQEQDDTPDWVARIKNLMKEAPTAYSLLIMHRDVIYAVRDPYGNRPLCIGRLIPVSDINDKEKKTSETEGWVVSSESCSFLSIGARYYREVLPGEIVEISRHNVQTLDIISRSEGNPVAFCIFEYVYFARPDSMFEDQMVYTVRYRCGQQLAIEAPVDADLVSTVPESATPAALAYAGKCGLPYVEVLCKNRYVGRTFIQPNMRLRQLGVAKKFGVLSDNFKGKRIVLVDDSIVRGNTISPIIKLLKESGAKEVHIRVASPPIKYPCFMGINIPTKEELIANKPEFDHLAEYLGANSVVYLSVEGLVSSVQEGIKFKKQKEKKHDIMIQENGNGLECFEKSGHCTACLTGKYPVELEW
UniProt Q8TD55: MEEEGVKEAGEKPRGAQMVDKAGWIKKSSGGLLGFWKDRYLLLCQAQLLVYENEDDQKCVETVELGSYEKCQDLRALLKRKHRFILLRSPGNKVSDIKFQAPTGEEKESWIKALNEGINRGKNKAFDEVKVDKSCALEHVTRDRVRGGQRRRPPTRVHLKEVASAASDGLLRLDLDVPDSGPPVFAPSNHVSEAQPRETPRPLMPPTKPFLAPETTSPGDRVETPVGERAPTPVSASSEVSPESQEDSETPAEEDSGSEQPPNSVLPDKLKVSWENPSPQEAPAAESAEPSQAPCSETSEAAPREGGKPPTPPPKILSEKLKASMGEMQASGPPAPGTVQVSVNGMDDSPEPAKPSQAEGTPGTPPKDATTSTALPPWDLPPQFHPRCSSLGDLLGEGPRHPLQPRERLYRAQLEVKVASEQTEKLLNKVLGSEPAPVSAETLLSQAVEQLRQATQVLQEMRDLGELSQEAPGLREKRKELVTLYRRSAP
UniProt Q96AD5: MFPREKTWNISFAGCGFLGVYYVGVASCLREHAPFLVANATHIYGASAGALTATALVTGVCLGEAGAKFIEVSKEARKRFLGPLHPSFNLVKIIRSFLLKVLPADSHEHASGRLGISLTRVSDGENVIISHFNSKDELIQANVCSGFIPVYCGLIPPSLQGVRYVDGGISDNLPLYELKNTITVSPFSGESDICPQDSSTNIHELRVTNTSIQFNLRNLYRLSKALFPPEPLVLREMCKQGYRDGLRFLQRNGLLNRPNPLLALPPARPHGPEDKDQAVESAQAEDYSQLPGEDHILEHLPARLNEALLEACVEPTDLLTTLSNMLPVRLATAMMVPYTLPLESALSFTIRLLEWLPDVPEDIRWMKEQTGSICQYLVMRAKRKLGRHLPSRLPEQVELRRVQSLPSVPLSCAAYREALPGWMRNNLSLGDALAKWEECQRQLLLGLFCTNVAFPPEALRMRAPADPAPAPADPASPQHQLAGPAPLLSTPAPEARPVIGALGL
UniProt Q9UNP9: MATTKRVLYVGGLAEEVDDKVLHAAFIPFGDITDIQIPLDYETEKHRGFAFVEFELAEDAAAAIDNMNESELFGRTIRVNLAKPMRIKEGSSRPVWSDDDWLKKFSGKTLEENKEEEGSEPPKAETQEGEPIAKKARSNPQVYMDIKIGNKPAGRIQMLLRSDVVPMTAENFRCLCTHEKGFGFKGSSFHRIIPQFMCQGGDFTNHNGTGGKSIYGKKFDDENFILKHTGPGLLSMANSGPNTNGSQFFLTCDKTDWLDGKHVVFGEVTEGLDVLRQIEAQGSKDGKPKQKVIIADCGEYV
UniProt O15318: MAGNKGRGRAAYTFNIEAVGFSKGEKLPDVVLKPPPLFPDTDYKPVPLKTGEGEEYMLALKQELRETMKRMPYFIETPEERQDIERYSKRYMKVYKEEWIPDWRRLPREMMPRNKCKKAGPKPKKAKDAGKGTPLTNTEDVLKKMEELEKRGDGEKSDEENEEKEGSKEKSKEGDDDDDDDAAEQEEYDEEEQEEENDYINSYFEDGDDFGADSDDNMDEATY

Experiments:
Assay in all cases: log2 fold change, soluble protein after heating vs DMSO (PISA); higher = thermal stabilisation; K562 lysate, 10 uM; active = over 0.2 and 3.5 SD of the protein, either way, in both replicates (recomputed)
lapatinib = compound: CS(=O)(=O)CCNCc1ccc(-c2ccc3ncnc(Nc4ccc(OCc5cccc(F)c5)c(Cl)c4)c3c2)o1 [lapatinib]
In short: (§1)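 Dounce homogenisation of K562 pellets in PBS pH 7.4 with 1 mM MgCl2 produced a crude extract, used at 1 mg/mL protein. Exposure to 10 μM compound lasted 30 min, and aliquots were then heated for 3 min across 48°C-58°C, pooled and brought to 0.5% NP-40 at 4°C. The supernatant after 21,000xg for 90 min was quantified by TMTpro 16plex LC-MS/MS with channel sums equalised. Duplicate values are given as log-two fold change in thermal stability relative to solvent controls.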

pictilisib = compound: CS(=O)(=O)N1CCN(Cc2cc3nc(-c4cccc5[nH]ncc45)nc(N4CCOCC4)c3s2)CC1 [pictilisib]
In short: as §1

crizotinib = compound: C[C@@H](Oc1cc(-c2cnn(C3CCNCC3)c2)cnc1N)c1c(Cl)ccc(F)c1Cl [crizotinib]
In short: as §1

[1] = compound: C[C@H](C1=CC=C(C=C1)C(=O)NC2=C3C=CNC3=NC=C2)N
In short: as §1

duvelisib = compound: C[C@H](Nc1ncnc2nc[nH]c12)c1cc2cccc(Cl)c2c(=O)n1-c1ccccc1 [duvelisib]
In short: as §1

gandotinib = compound: Cc1cc(Nc2cc(CN3CCOCC3)c3nc(C)c(Cc4ccc(Cl)cc4F)n3n2)n[nH]1 [gandotinib]
In short: as §1

tozasertib = compound: Cc1cc(Nc2cc(N3CCN(C)CC3)nc(Sc3ccc(NC(=O)C4CC4)cc3)n2)n[nH]1 [tozasertib]
In short: as §1

doramapimod = compound: Cc1ccc(-n2nc(C(C)(C)C)cc2NC(=O)Nc2ccc(OCCN3CCOCC3)c3ccccc23)cc1 [doramapimod]
In short: as §1

bafetinib = compound: Cc1ccc(NC(=O)c2ccc(CN3CC[C@H](N(C)C)C3)c(C(F)(F)F)c2)cc1Nc1nccc(-c2cncnc2)n1 [bafetinib]
In short: as §1

[2] = compound: Cc1cccc(CC(=O)N2CCc3c2ccc(-c2cn(C)c4ncnc(N)c24)c3F)n1
In short: as §1

nilotinib = compound: Cc1cn(-c2cc(NC(=O)c3ccc(C)c(Nc4nccc(-c5cccnc5)n4)c3)cc(C(F)(F)F)c2)cn1 [nilotinib]
In short: as §1

[3] = compound: Cc1nc(Nc2n[nH]c3c2CN(C(=O)N[C@H](CN(C)C)c2ccccc2)C3(C)C)c2sccc2n1
In short: as §1

dasatinib = compound: Cc1nc(Nc2ncc(C(=O)Nc3c(C)cccc3Cl)s2)cc(N2CCN(CCO)CC2)n1 [dasatinib]
In short: as §1

[4] = compound: Cc1ncc(-c2ccnc(Nc3ccc(S(C)(=O)=O)cc3)n2)n1C(C)C
In short: as §1

[5] = compound: Cn1cc(-c2ccc3c(c2)CCN3C(=O)Cc2cccc(C(F)(F)F)c2)c2c(N)ncnc21
In short: as §1

quisinostat = compound: Cn1cc(CNCC2CCN(c3ncc(C(=O)NO)cn3)CC2)c2ccccc21 [quisinostat]
In short: as §1

tipifarnib = compound: Cn1cncc1[C@@](N)(c1ccc(Cl)cc1)c1ccc2c(c1)c(-c1cccc(Cl)c1)cc(=O)n2C [tipifarnib]
In short: as §1

[6] = compound: NC(=O)Nc1cc(-c2cccc(F)c2)sc1C(=O)N[C@H]1CCCNC1
In short: as §1

[7] = compound: NC(=O)c1cnc(N[C@@H]2CCCC[C@@H]2N)nc1Nc1cccc(-n2nccn2)c1
In short: as §1

[8] = compound: NC1(c2ccc(-c3nc4ccn5c(=O)[nH]nc5c4cc3-c3ccccc3)cc2)CCC1
In short: as §1

Measured: log2 fold change

POTEF (UniProt A5A3E0)
inactive: lapatinib -0.036 | pictilisib 0.041 | crizotinib -0.021 | [1] 0.003 | duvelisib -0.017 | gandotinib -0.021 | tozasertib -0.011 | doramapimod 0.003 | bafetinib 0.006 | [2] -0.008 | nilotinib 0.021 | [3] -0.041 | dasatinib -0.016 | [4] 0.014 | [5] -0.029 | quisinostat -0.003 | tipifarnib 0.044 | [6] 0.004 | [7] 0 | [8] -0.016

POP1 (UniProt Q99575)
inactive: lapatinib -0.007 | pictilisib -0.032 | crizotinib -0.007 | [1] 0.032 | duvelisib -0.004 | gandotinib 0.006 | tozasertib 0.013 | doramapimod 0.001 | bafetinib 0 | [2] -0.035 | nilotinib 0.018 | [3] 0.023 | dasatinib -0.005 | [4] -0.003 | [5] -0.016 | quisinostat -0.023 | tipifarnib 0.015 | [6] -0.001 | [7] 0.003 | [8] 0.007

PNPO (UniProt Q9NVS9)
inactive: lapatinib 0.018 | pictilisib -0.026 | crizotinib 0.009 | [1] 0.147 | duvelisib 0.029 | gandotinib -0.153 | tozasertib 0.076 | doramapimod -0.027 | bafetinib 0.053 | [2] -0.127 | nilotinib 0.01 | [3] -0.048 | dasatinib -0.001 | [4] 0.021 | [5] 0.006 | quisinostat 0.047 | tipifarnib 0.001 | [6] 0.01 | [7] -0.002 | [8] -0.018

POFUT1 (UniProt Q9H488)
inactive: lapatinib 0.058 | pictilisib 0.035 | crizotinib 0.041 | [1] 0.02 | duvelisib -0.025 | gandotinib -0.016 | tozasertib -0.004 | doramapimod -0.049 | bafetinib -0.026 | [2] -0.019 | nilotinib -0.026 | [3] 0.01 | dasatinib 0.042 | [4] -0.033 | [5] -0.036 | quisinostat 0.089 | tipifarnib -0.051 | [6] 0.021 | [7] -0.034 | [8] 0.042

PNN (UniProt Q9H307)
inactive: lapatinib 0.005 | pictilisib 0.02 | crizotinib 0.077 | [1] -0.009 | duvelisib -0.052 | gandotinib 0.053 | tozasertib -0.039 | doramapimod 0.166 | bafetinib 0.014 | [2] -0.023 | nilotinib 0.022 | [3] -0.007 | dasatinib 0.025 | [4] -0.018 | [5] 0.01 | quisinostat 0.005 | tipifarnib -0.004 | [6] -0.058 | [7] 0.004 | [8] 0.03

PNISR (UniProt Q8TF01)
inactive: lapatinib 0.01 | pictilisib -0.023 | crizotinib 0.037 | [1] -0.066 | duvelisib -0.032 | gandotinib 0.053 | tozasertib 0.006 | doramapimod -0.003 | bafetinib -0.038 | [2] 0.019 | nilotinib -0.022 | [3] 0.023 | dasatinib 0.018 | [4] -0.017 | [5] -0.027 | quisinostat 0.014 | tipifarnib 0.003 | [6] -0.021 | [7] -0.011 | [8] 0.006

PNKD isoform 2 (UniProt Q8N490)
inactive: lapatinib -0.038 | pictilisib 0.012 | crizotinib 0.049 | [1] 0.037 | duvelisib 0.007 | gandotinib -0.039 | tozasertib -0.043 | doramapimod 0.03 | bafetinib -0.045 | [2] -0.05 | nilotinib 0.016 | [3] -0.07 | dasatinib -0.035 | [4] 0.07 | [5] -0.027 | quisinostat 0.101 | tipifarnib 0.063 | [6] 0.002 | [7] 0.006 | [8] -0.058

POTEI (UniProt P0CG38)
inactive: lapatinib -0.016 | pictilisib -0.022 | crizotinib -0.037 | [1] 0.01 | duvelisib -0.03 | gandotinib 0.053 | tozasertib -0.015 | doramapimod 0.073 | bafetinib -0.056 | [2] -0.09 | nilotinib 0.09 | [3] -0.038 | dasatinib -0.006 | [4] -0.01 | [5] -0.01 | quisinostat -0.057 | tipifarnib 0.04 | [6] 0.041 | [7] 0.008 | [8] -0.005

PPAT (UniProt Q06203)
inactive: lapatinib 0.013 | pictilisib -0.01 | crizotinib 0.011 | [1] 0.138 | duvelisib -0.006 | gandotinib -0.055 | tozasertib 0.003 | doramapimod 0.002 | bafetinib 0.052 | [2] -0.116 | nilotinib -0.008 | [3] 0.009 | dasatinib 0.024 | [4] 0.014 | [5] -0.002 | quisinostat 0.038 | tipifarnib 0.009 | [6] -0.048 | [7] -0.008 | [8] -0.017

PPFIA1 (UniProt Q13136)
inactive: lapatinib 0.017 | pictilisib -0.013 | crizotinib 0.024 | [1] -0.062 | duvelisib 0.028 | gandotinib -0.002 | tozasertib 0.022 | doramapimod -0.01 | bafetinib -0.051 | [2] 0.078 | nilotinib -0.06 | [3] -0.061 | dasatinib -0.041 | [4] -0.011 | [5] 0.046 | quisinostat 0.014 | tipifarnib 0.002 | [6] 0.011 | [7] 0.046 | [8] -0.006

PLEKHO2 (UniProt Q8TD55)
active: [8] 0.873
inactive: lapatinib 0.045 | pictilisib 0.184 | crizotinib 0.057 | [1] 0.039 | duvelisib 0.062 | gandotinib -0.018 | tozasertib -0.137 | doramapimod 0.005 | bafetinib -0.193 | [2] 0.07 | nilotinib 0.207 | [3] -0.237 | dasatinib -0.096 | [4] 0.118 | [5] -0.039 | quisinostat 0.062 | tipifarnib -0.192 | [6] 0.068 | [7] -0.071

PPCS (UniProt Q9HAB8)
inactive: lapatinib -0.007 | pictilisib -0.035 | crizotinib -0.057 | [1] -0.008 | duvelisib 0.009 | gandotinib -0.086 | tozasertib -0.008 | doramapimod 0.006 | bafetinib -0.042 | [2] -0.044 | nilotinib -0.013 | [3] -0.014 | dasatinib 0.016 | [4] -0.053 | [5] 0.016 | quisinostat 0.024 | tipifarnib 0.052 | [6] 0.011 | [7] 0.004 | [8] -0.006

POLR2C (UniProt P19387)
inactive: lapatinib 0.014 | pictilisib -0.019 | crizotinib -0.017 | [1] -0.056 | duvelisib -0.012 | gandotinib -0.009 | tozasertib 0.026 | doramapimod 0.009 | bafetinib -0.039 | [2] 0.073 | nilotinib 0.042 | [3] 0.002 | dasatinib -0.052 | [4] 0.086 | [5] 0.032 | quisinostat -0.046 | tipifarnib -0.019 | [6] 0.018 | [7] 0.016 | [8] 0.107

PNPLA2 (UniProt Q96AD5)
inactive: lapatinib 0.019 | pictilisib -0.052 | crizotinib -0.04 | [1] -0.003 | duvelisib -0.013 | gandotinib -0.075 | tozasertib 0.001 | doramapimod -0.026 | bafetinib -0.057 | [2] 0.03 | nilotinib -0.006 | [3] 0.006 | dasatinib -0.032 | [4] 0.041 | [5] 0.055 | quisinostat 0.003 | tipifarnib -0.014 | [6] -0.006 | [7] 0.018 | [8] -0.04

PPIE (UniProt Q9UNP9)
inactive: lapatinib 0.03 | pictilisib 0 | crizotinib -0.02 | [1] -0.234 | duvelisib 0.006 | gandotinib 0.144 | tozasertib 0.014 | doramapimod 0.062 | bafetinib 0.009 | [2] 0.102 | nilotinib -0.027 | [3] 0.017 | dasatinib -0.017 | [4] -0.01 | [5] -0.016 | quisinostat -0.091 | tipifarnib -0.003 | [6] -0.018 | [7] 0.04 | [8] -0.034

Random excerpt: two entries already listed
PPCS (UniProt Q9HAB8)
inactive: lapatinib -0.007 | pictilisib -0.035 | crizotinib -0.057 | [1] -0.008 | duvelisib 0.009 | gandotinib -0.086 | tozasertib -0.008 | doramapimod 0.006 | bafetinib -0.042 | [2] -0.044 | nilotinib -0.013 | [3] -0.014 | dasatinib 0.016 | [4] -0.053 | [5] 0.016 | quisinostat 0.024 | tipifarnib 0.052 | [6] 0.011 | [7] 0.004 | [8] -0.006

PPIE (UniProt Q9UNP9)
inactive: lapatinib 0.03 | pictilisib 0 | crizotinib -0.02 | [1] -0.234 | duvelisib 0.006 | gandotinib 0.144 | tozasertib 0.014 | doramapimod 0.062 | bafetinib 0.009 | [2] 0.102 | nilotinib -0.027 | [3] 0.017 | dasatinib -0.017 | [4] -0.01 | [5] -0.016 | quisinostat -0.091 | tipifarnib -0.003 | [6] -0.018 | [7] 0.04 | [8] -0.034

Further results

POLR3G (UniProt O15318)
inactive: lapatinib -0.019 | pictilisib 0.044 | crizotinib -0.017 | [1] -0.004 | duvelisib 0.006 | gandotinib 0.107 | tozasertib -0.009 | doramapimod -0.009 | bafetinib -0.087 | [2] 0.047 | nilotinib -0.054 | [3] -0.029 | dasatinib 0.047 | [4] 0.04 | [5] 0 | quisinostat -0.028 | tipifarnib 0.027 | [6] 0.014 | [7] 0.016 | [8] 0.063
